## Library screening results

Sequences of proteins named here, by UniProt entry; tags and fusion partners are left off.
UniProt E9BF75, entry or part of it: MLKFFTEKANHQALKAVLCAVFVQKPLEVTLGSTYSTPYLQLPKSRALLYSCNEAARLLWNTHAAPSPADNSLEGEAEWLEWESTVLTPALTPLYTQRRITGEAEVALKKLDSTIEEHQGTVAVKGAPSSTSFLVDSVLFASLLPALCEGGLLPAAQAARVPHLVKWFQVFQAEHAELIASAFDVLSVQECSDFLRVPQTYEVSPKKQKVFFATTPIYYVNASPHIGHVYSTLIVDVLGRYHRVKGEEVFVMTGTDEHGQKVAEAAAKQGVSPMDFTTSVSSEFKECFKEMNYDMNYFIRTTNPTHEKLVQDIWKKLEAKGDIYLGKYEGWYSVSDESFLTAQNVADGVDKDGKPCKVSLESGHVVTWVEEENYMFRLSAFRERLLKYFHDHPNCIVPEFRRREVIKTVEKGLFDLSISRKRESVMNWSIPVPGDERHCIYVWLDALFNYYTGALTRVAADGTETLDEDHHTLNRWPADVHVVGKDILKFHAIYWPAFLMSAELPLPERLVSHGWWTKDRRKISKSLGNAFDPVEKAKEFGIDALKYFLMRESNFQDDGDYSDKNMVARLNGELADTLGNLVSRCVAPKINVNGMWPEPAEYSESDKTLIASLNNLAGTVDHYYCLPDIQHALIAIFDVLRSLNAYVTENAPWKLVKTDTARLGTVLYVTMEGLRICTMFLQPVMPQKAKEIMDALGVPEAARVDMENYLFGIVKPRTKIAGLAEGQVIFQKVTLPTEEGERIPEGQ

LdMetRS: 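Methionyl-tRNA synthetase (putative), Leishmania donovani (UniProt E9BF75). Primary screen of methionyl-tRNA synthetase; the read-out is not stated. The test concentration is not given. The values are filed as inhibition. Of about 68,000 compounds tested this way, about 24 (0.035%) reached 50% or more in at least one test.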
Mtb heat-shock: 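Assay on Mycobacterium tuberculosis, filed only as a heat shock assay from Cornell; the read-out is not stated. The concentration is filed as 10 mM, unlikely as a test dose, so the dose is not known. The record gives no direction; compounds that gave an IC50 in retests scored well above the rest, so higher reads as stronger inhibition. Size under these conditions: about 69,000 compounds, about 930 of them at 50% or above in at least one test.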

Results are percentages, as filed. How 0% and 100% were set is not recorded. Most values in the screen are low, and negative values occur. This is an unselected part of the compounds tested. A dash means the value is not listed here; it may have been measured.

Compound,LdMetRS,Mtb heat-shock
Cc1noc(C)c1CN1CCn2cc(CNC(=O)C3CCC3)nc2C1.O=C(O)C(F)(F)F,-,-0.4241
Cc1c(F)cccc1S(=O)(=O)NC(C)(C)CN.Cl,-,6.848
Cc1nc(C)n(CC2CCCN2c2ncnc3ccsc23)n1 (stereo not given),9.687,-2.487
CC(C)(C)c1ncc(C(=O)NCc2cccc(C(=O)N3CCCC3)c2)s1,10.64,-1.236
Cc1ccc2nc(C)c(C)c(C(=O)NCCCn3ccnn3)c2c1,3.623,-0.8361
O=C(c1c(F)cccc1Br)N1CCCOCC1,3.093,-30.36
Cc1cc(S(C)(=O)=O)c(C)c(S(=O)(=O)NCC2CCCO2)c1 (stereo not given),3.261,-5.194
Cc1nn(C)c2ncc(S(=O)(=O)N3CCCN4CCCC4C3)cc12 (stereo not given),7.013,3.46
CC1COCCN1Cc1nc(-c2cccc(C(F)(F)F)c2)no1 (stereo not given),17.78,-9.908
CNc1oc(COc2ccc3c(c2)OCO3)nc1C#N,5.152,-2.076
CC(=O)N1CCCC2(C1)CN(c1ncc(C)cn1)CCO2 (stereo not given),10.8,-
CC(C)N1CCC(c2nccnc2Nc2ncccn2)CC1,2.604,0.1989
Cc1nc(C2CCCN(C(=O)c3ccc(OCC4CC4)nc3)C2)no1 (stereo not given),6.425,-21.9
Cc1nc2cc(NCc3cnn(C)c3)ccc2n1C,11.67,-2.743
O=C(NS(=O)(=O)c1ccc(F)c(F)c1)c1cscn1,6.529,2.543
Cc1nc(C)n(CC2CN(CCc3ccccc3Cl)CCO2)n1 (stereo not given),3.01,-32.96
FC(F)CNc1cnc(C2CCCN2)cn1 (stereo not given),7.188,-
O=C(N1CCCC1)N1CCC[C@]2(C[C@@H](Oc3ncccc3F)CO2)C1,-5.625,-
O=C(CN1CC(c2nc(C3CC3)no2)C1)N1CCOCC1,16.21,-
O=C(c1cc2c(s1)CCCC2)N1CCc2nc(C3CCCN3)ncc2C1 (stereo not given),-4.502,-
NC(=O)C(Nc1ccc(Cl)cc1)c1ccc(F)cc1 (stereo not given),10.97,20.07
COc1c(CNC2CCCc3ccccc32)c(C(C)C)nn1C (stereo not given),0.3175,6.449
O=C(Nc1cccnc1)[C@H]1C[C@H]2OCC[C@H]2N(Cc2ccc(F)cc2)C1,6.536,-
c1ccc(-c2noc(CCCN3CCCC3Cn3cncn3)n2)cc1 (stereo not given),21.11,-12.59
CCC(CN1CCN(C)CC1)NC(=O)C1(c2cccc(F)c2)CC1.O=C(O)CC(O)(CC(=O)O)C(=O)O (stereo not given),-,1.881
COc1ccc(Cl)cc1CS(=O)(=O)Cc1nc(C2CC2)no1,6.593,45.18
O=C(O)C(F)(F)F.[H][C@@]12COC[C@]1(CNC(=O)c1ccccc1)CN(CC1CCOCC1)C2,-,-5.837
Cc1c(C(=O)NS(=O)(=O)c2ccsc2)cnn1CC(C)C,0.6211,-7.802
CCn1nc(CC(C)C)cc1C(=O)NCCn1cccc1,6.195,49.17
Cc1cccc(CN2CCC(Cc3ccccc3F)CC2)n1,11.41,100.5
O=C(O)c1ccc(F)c(S(=O)(=O)Nc2c(F)cccc2-n2cccn2)c1,14.63,-2.354
COc1ccc(COCC(O)CNC(=O)c2ccncc2)cc1 (stereo not given),20.92,-1.04
CN1CCCN(C(=O)NCc2csc(Br)c2)CC1,9.841,5.084
CN(Cc1cnn(C)c1)C(=O)NCc1cc(Br)cs1,14.92,-8.776
Cc1cccc(CN2CCC(n3cc(CCO)nn3)CC2)c1C,11.5,-19.72
CCc1ccccc1OCC(=O)Nc1ccnc(OCCN(C)C)c1,9.192,1.582
COc1ccccc1CN(Cc1nc2c(cnn2C)c(=O)[nH]1)C1CC1,0.2793,-10.16
Cc1cn(CCn2ccnc2-c2sccc2C)nn1,11.59,2.569
O=C(Nc1ccccc1)c1ccc2c(c1)C1(CCCCC1)CN2,12.89,-
Cc1nc2cc(-c3nccn3C)nn2c(N2CCCC(O)C2)c1C.Cl (stereo not given),-,-2.109
CN(C)S(=O)(=O)NCCn1nc(-c2ccccc2)n(C)c1=O,11.51,11.81
CC(C)Nc1ncnc2c1CCN(c1cc(C(F)(F)F)ncn1)CC2,11.4,-15.08
CCN(CC)S(=O)(=O)c1cnccc1N1CCN(C(C)C)CC1,21.55,10.06
Cc1cc(C)n(Cc2ccc(-c3noc(C(=O)NC[C@@H](C)O)n3)cc2)n1,5.376,-2.615
CCCN(CC(F)(F)F)S(=O)(=O)c1cc(C(N)=O)n(C)c1,13.28,-14.69
COc1ccc(CN2CCN(S(=O)(=O)c3cc(C(=O)O)cs3)CC2)cc1,5.108,-9.68
COc1cccc(Cn2ncnc2CCSC)c1,16.72,-6.684
O=C(NC1CCN(c2ncccc2F)C1)c1cccc(-n2ccnn2)c1 (stereo not given),17.47,-2.482
CC(OCC1CC1)C(=O)NCc1cccc(CN2CCCC2=O)c1 (stereo not given),3.621,-12.81
CN(Cc1ccc([S+](C)[O-])cc1)c1ccccn1 (stereo not given),18.16,13.4
O=C(NCc1nc[nH]n1)c1cc(COc2cccc(F)c2)[nH]n1,20.24,-143.9
CCC(C)NC(=O)CCc1ccc(OCC(F)(F)F)c(OC)c1 (stereo not given),18.29,-13.38
CN1CCCN(C(=O)c2nc3c(o2)CN(C(=O)c2cccnc2)C3)CC1,17.78,-
CSc1ccccc1CN1C[C@@H]2CC[C@H](C1)N(CC1CC1)C2=O,3.344,-
[H][C@@]12CCCO[C@]1([H])[C@H](Nc1ccccn1)CN(Cc1cccc(C)n1)C2,-,-22.94
O=C(NCc1ccccc1)c1nnc2ccc(N3CCOCC3)cc2n1,12.03,12.27
Cc1noc(C)c1-c1ccc(C2CCCN2C(=O)c2ccncn2)nc1 (stereo not given),1.286,-22.08
O=C(O)C(F)(F)F.O=C(O)C(F)(F)F.O=C(c1ccncc1)N1CC2(CCNCC2)c2cc(Cl)ccc21,-,-8.737
O=C(O)C(F)(F)F.O=C1COC2(CCN(Cc3ccoc3)CC2)CN1c1ccccc1,-,-7.815
CN(CC(=O)Nc1ccccc1)C(=O)CN(C)c1ccc(Cl)cn1,17.22,-185.8
CN(C)C(=O)CNC(=O)c1ccc(Cl)cc1F,13.38,8.535
Cc1cc(C)n(CC2CCCN2C(=O)c2cccc3c2OCO3)n1 (stereo not given),20,-22.29
O=C(O)C(F)(F)F.O=C(O)C(F)(F)F.[H][C@@]12CCC(=O)N(CC3CC3)[C@]1([H])CCN2Cc1ccccn1,-,-18.31
Cn1cc(-c2ncc(C(=O)NCCCn3ccccc3=O)s2)cn1,21.75,-2.185
c1ccc(-c2noc(CN3CCc4cncnc4C3)n2)nc1,13.27,0.3186
Cc1nn2cccnc2c1C(=O)NCc1ccnc(OCC2CC2)c1,11.85,1.543
CCOC(=O)NC(CNC(=O)c1ncccn1)CC(C)C (stereo not given),13.75,-1.44
CN1CCN(C)c2cc(NC(=O)c3cc[nH]n3)ccc2C1,14.04,-2.341
Cc1[nH]ncc1CCCNC(=O)N1CCC(CC(N)=O)CC1,7.888,2.013
CCOc1ccccc1C(CC(=O)Nc1nc(C)cs1)NC(C)=O (stereo not given),15.31,-3.389
Cc1c(C(=O)N2CC(Cc3nccc4ccn(C)c34)C2)cnn1C,12.3,-8.859
Cc1ccc(-c2noc(C3CCN3C(=O)c3ccc(=O)[nH]n3)n2)s1 (stereo not given),11.05,0.248
O=S(=O)(c1c(N2CCCC2)ccc2nonc12)N1CCCC1,4.393,17.96

Once more, the final 8:

Compound,LdMetRS,Mtb heat-shock
Cc1nn2cccnc2c1C(=O)NCc1ccnc(OCC2CC2)c1,11.85,1.543
CCOC(=O)NC(CNC(=O)c1ncccn1)CC(C)C (stereo not given),13.75,-1.44
CN1CCN(C)c2cc(NC(=O)c3cc[nH]n3)ccc2C1,14.04,-2.341
Cc1[nH]ncc1CCCNC(=O)N1CCC(CC(N)=O)CC1,7.888,2.013
CCOc1ccccc1C(CC(=O)Nc1nc(C)cs1)NC(C)=O (stereo not given),15.31,-3.389
Cc1c(C(=O)N2CC(Cc3nccc4ccn(C)c34)C2)cnn1C,12.3,-8.859
Cc1ccc(-c2noc(C3CCN3C(=O)c3ccc(=O)[nH]n3)n2)s1 (stereo not given),11.05,0.248
O=S(=O)(c1c(N2CCCC2)ccc2nonc12)N1CCCC1,4.393,17.96

Measurements from “University of Dundee, Small-Polar-MMV Screening Library” (2021), ChEMBL document CHEMBL3988442.